These are yes or no findings as the source states them, for the method shown. Binding seen in cells or lysates may run through a third protein. Some entries that bind do so weakly or less than the wild type.
Biological target: FGFR3 carrying the A391E mutation (Crouzon syndrome with Acanthosis Nigricans) (human) (UniProt P22607)
Experiment: FRET or BRET; unpublished work, not shown; no ligand

Chains of the proteins cited; added tags and fusions are not shown. Lines headed by an entry give the natural chain unless they say otherwise; changes in a name come on top. A line that says so, or that is headed by a name, gives the form on record, which may keep a tag or linker.
FGFR3 carrying the A391E mutation (Crouzon syndrome with Acanthosis Nigricans) (P22607, form named): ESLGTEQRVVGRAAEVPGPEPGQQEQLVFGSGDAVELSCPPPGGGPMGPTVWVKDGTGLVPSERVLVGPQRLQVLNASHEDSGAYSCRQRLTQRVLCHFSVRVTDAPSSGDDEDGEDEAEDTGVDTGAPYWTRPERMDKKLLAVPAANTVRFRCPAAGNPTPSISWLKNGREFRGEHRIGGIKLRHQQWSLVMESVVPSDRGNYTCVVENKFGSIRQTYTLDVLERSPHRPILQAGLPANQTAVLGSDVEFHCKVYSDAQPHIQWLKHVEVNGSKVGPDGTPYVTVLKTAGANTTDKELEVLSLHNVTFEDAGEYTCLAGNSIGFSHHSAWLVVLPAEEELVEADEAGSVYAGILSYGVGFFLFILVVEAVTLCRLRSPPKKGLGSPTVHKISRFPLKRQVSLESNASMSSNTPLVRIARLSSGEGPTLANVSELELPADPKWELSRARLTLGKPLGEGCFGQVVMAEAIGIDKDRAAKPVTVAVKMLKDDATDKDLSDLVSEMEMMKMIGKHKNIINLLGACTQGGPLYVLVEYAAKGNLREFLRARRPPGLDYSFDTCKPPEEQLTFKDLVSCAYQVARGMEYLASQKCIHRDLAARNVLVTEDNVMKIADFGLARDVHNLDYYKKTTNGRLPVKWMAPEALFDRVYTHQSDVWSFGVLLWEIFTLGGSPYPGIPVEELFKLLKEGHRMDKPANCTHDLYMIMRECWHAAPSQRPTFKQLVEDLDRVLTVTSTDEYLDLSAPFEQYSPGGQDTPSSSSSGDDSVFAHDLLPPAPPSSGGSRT

binding: binds
Substance: FGFR3 carrying the A391E mutation (Crouzon syndrome with Acanthosis Nigricans) (from UniProt P22607 23-806) (receptor)

Reference: article PMC3577887, “Multiple Consequences of a Single Amino Acid Pathogenic RTK Mutation: The A391E Mutation in FGFR3” (PLoS ONE, 2013)
